Source: patent US20250296937A1, “CYCLIC BISBENZYL TETRAHYDROISOQUINOLINE COMPOUND, AND PREPARATION METHOD THEREFOR AND USE THEREOF” (Shanghai Institute of Materia Medica, Chinesse Academy of …, priority 2021, published 2025)
At least one compound was matched to its structure with a doubt left.

What was measured:
[1] = tested on: 2019 novel coronavirus (SARS-CoV-2) original strain; test: Replication inhibitory activity against SARS-CoV-2 original strain in Vero E6 cells (qRT-PCR); type: cell-based
[2] = tested on: Th1/Th17 differentiation of CD4+T cells; test: CD4+T cell in vitro differentiation assay (Th1 IFN-γ / Th17 IL-17A, flow cytometry); settings: 10 μM, 72 h, IFN-γ/IL-17A by flow cytometry

| SMILES | antiviral activity against novel coronaviruses (background statement) [1] | inhibitory effect on Th1/Th17 differentiation [2] |
| --- | --- | --- |
| COc1cc2c3cc1Oc1c(OC)c(OC)cc4c1[C@@H](Cc1ccc(O)c(c1)Oc1ccc(cc1)C[C@@H]3N(C)CC2)N(C)CC4 [berbamine, reference compound] | weak antiviral activity | – |
| COc1cc2c3cc1Oc1c(OC)c(OC)cc4c1[C@H](Cc1ccc(cc1)Oc1cc(ccc1C#N)C[C@H]3N(C)CC2)N(C)CC4 [Compound 1] | – | strong inhibitory effect |
